In publication doi:10.1101/2020.02.24.954453:
Residue numbers refer to the chain shown, from its start. These are yes or no findings as the source states them, for the method shown. A result given as binding can be weak or reduced; the word gives no strength. For some assays here: Binding seen in cells or lysates may run through a third protein. For some assays here: Sequences can lack the tags named with a protein.

Legend:
mCherry-UPF1 (human) [1] = biological target: T1, mCherry-UPF1 (human) (UniProt Q92900); assay: FRET or BRET
T1 sequence: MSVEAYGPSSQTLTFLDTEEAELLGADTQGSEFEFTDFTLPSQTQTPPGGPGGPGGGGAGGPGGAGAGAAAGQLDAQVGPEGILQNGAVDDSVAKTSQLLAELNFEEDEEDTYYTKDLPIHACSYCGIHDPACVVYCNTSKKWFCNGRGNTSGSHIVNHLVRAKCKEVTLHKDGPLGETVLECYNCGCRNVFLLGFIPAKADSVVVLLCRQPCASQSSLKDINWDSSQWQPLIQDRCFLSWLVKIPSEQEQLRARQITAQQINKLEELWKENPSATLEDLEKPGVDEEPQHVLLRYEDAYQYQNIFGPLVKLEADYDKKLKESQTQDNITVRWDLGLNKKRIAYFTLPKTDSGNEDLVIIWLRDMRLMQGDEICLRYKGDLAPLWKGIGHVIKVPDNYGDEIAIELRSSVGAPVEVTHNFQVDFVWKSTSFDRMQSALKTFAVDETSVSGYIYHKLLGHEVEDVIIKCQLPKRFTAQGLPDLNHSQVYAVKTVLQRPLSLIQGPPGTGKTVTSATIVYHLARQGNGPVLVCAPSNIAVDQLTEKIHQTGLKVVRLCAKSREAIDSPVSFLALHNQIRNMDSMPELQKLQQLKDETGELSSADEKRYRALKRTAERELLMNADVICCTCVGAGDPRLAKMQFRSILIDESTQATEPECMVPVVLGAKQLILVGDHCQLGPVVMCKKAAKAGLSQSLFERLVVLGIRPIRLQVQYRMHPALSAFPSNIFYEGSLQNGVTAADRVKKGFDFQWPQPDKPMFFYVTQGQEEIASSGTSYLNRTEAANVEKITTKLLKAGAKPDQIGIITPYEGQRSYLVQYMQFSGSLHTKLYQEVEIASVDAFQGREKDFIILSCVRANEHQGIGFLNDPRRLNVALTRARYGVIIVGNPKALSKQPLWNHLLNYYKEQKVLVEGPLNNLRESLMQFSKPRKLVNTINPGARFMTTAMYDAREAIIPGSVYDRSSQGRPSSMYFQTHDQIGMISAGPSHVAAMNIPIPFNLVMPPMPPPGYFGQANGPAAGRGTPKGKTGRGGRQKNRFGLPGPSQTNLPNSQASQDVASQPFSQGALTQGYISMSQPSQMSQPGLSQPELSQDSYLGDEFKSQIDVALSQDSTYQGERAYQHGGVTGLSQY

mCherry-UPF1 (human) [2] = biological target: T1, mCherry-UPF1 (human); assay: fluorescence cross-correlation spectroscopy
FLAG-tagged UPF1 (human) = biological target: T2, FLAG-tagged UPF1 (human) (UniProt Q92900); assay: co-IP
T2 sequence: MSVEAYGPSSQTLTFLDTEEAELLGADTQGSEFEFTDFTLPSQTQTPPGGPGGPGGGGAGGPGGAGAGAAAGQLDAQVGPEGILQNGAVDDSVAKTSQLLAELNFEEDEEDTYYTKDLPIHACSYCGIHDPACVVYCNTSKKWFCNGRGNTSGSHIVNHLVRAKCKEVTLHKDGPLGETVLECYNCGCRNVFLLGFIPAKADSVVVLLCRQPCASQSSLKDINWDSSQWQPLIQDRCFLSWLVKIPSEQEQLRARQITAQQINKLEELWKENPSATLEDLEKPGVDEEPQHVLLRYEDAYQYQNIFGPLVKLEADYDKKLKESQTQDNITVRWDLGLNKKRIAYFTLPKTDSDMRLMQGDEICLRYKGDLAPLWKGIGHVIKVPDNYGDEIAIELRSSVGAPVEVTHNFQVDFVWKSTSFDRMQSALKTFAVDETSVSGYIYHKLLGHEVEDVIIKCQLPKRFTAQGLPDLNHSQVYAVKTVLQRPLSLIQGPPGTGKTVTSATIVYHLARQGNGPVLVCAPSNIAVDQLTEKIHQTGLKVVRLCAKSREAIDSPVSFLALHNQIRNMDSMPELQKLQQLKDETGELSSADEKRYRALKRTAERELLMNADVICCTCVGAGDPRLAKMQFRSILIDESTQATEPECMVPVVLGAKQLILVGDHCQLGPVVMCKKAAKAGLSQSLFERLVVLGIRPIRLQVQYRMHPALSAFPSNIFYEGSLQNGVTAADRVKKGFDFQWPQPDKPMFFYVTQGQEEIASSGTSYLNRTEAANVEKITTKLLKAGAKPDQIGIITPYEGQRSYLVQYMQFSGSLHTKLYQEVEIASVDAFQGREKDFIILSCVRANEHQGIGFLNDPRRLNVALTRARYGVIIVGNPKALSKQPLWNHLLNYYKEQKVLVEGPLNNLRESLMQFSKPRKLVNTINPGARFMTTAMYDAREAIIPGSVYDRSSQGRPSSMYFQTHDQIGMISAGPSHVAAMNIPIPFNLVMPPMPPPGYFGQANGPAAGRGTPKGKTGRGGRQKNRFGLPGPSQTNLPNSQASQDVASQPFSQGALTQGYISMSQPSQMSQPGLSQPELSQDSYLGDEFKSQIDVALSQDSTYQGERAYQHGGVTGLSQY

[3] = biological target: T3, FLAG-tagged UPF1 C126S (human) (UniProt Q92900); assay: co-IP
T3 sequence: T2 sequence with C126S

[4] = biological target: T4, endogenous UPF1 (human (endogenous in HeLa)) (UniProt Q92900); assay: proximity ligation
T4 sequence: T1 sequence

Question: How did the binding (mCherry-UPF1 (human) [1]) turn out when GFP-NBAS (human) was run?
Answer: The binding was “binds”.

Question: And the binding (mCherry-UPF1 (human) [2])?
Answer: The binding was “binds”.

Question: T7-tagged NBAS (human) was tested. Which binding (FLAG-tagged UPF1 (human)) did it give?
Answer: The binding was “binds”.

Question: And the binding [3]?
Answer: The binding was “binds”.

Question: With “endogenous NBAS (human (endogenous in HeLa))” as the substance, how does the binding [4] read?
Answer: The binding was “binds”.
